Here are results for one molecule from publication PMC3530481.

Sequences of proteins named here, by UniProt entry; tags and fusion partners are left off. A change or cut given only in a name is not applied to a line headed by its entry.
UniProt P12109: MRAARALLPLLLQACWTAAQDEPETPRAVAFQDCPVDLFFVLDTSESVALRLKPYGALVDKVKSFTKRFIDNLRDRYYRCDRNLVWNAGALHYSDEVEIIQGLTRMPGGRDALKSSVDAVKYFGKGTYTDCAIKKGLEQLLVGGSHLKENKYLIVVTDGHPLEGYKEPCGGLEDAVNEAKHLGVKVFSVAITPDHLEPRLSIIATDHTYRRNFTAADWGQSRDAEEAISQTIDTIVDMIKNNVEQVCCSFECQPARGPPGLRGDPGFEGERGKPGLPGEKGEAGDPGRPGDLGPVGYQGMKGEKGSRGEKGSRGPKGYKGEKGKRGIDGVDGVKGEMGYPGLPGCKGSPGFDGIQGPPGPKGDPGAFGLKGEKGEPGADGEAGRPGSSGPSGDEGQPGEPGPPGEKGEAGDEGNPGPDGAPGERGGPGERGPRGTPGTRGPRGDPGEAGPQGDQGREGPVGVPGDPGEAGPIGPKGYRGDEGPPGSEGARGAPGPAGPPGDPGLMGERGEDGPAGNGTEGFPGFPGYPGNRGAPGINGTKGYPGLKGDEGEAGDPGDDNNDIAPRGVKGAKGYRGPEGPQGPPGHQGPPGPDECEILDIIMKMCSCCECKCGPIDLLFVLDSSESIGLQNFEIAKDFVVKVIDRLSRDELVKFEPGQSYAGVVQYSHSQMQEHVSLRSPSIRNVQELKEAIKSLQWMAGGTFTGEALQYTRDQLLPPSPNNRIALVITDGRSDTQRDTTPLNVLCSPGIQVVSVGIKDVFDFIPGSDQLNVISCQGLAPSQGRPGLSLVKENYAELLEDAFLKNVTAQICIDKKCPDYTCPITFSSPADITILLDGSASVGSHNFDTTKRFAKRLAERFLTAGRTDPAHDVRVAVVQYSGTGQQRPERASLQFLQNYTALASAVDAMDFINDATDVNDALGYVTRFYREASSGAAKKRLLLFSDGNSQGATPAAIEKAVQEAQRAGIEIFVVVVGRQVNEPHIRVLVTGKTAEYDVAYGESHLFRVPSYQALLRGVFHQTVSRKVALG
UniProt P12110: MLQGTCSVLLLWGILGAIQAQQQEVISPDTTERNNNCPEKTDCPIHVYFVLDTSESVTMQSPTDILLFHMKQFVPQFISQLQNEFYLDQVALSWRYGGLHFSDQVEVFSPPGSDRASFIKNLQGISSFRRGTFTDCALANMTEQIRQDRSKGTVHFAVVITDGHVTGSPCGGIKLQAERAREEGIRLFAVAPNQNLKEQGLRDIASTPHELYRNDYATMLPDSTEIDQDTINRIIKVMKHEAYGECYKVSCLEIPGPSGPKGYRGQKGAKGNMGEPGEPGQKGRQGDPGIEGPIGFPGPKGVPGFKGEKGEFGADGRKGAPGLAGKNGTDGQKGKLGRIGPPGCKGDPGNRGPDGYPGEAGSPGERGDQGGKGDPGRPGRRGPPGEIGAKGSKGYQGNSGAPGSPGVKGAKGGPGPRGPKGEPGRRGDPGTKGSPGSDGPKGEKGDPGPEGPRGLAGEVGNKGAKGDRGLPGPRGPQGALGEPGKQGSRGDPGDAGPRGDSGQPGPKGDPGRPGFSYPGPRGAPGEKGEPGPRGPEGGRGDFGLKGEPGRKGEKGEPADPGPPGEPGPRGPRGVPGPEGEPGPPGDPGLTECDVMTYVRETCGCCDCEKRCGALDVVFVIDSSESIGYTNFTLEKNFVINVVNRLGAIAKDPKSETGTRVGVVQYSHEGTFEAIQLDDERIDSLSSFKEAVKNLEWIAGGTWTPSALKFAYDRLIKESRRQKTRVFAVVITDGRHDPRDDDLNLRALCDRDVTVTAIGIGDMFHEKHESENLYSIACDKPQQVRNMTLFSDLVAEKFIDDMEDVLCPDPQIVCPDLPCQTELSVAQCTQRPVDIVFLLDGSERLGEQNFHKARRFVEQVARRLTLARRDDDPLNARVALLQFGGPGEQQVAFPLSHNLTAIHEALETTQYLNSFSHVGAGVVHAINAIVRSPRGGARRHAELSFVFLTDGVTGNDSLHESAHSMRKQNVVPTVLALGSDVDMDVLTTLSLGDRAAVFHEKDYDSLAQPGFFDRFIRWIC
UniProt P12111: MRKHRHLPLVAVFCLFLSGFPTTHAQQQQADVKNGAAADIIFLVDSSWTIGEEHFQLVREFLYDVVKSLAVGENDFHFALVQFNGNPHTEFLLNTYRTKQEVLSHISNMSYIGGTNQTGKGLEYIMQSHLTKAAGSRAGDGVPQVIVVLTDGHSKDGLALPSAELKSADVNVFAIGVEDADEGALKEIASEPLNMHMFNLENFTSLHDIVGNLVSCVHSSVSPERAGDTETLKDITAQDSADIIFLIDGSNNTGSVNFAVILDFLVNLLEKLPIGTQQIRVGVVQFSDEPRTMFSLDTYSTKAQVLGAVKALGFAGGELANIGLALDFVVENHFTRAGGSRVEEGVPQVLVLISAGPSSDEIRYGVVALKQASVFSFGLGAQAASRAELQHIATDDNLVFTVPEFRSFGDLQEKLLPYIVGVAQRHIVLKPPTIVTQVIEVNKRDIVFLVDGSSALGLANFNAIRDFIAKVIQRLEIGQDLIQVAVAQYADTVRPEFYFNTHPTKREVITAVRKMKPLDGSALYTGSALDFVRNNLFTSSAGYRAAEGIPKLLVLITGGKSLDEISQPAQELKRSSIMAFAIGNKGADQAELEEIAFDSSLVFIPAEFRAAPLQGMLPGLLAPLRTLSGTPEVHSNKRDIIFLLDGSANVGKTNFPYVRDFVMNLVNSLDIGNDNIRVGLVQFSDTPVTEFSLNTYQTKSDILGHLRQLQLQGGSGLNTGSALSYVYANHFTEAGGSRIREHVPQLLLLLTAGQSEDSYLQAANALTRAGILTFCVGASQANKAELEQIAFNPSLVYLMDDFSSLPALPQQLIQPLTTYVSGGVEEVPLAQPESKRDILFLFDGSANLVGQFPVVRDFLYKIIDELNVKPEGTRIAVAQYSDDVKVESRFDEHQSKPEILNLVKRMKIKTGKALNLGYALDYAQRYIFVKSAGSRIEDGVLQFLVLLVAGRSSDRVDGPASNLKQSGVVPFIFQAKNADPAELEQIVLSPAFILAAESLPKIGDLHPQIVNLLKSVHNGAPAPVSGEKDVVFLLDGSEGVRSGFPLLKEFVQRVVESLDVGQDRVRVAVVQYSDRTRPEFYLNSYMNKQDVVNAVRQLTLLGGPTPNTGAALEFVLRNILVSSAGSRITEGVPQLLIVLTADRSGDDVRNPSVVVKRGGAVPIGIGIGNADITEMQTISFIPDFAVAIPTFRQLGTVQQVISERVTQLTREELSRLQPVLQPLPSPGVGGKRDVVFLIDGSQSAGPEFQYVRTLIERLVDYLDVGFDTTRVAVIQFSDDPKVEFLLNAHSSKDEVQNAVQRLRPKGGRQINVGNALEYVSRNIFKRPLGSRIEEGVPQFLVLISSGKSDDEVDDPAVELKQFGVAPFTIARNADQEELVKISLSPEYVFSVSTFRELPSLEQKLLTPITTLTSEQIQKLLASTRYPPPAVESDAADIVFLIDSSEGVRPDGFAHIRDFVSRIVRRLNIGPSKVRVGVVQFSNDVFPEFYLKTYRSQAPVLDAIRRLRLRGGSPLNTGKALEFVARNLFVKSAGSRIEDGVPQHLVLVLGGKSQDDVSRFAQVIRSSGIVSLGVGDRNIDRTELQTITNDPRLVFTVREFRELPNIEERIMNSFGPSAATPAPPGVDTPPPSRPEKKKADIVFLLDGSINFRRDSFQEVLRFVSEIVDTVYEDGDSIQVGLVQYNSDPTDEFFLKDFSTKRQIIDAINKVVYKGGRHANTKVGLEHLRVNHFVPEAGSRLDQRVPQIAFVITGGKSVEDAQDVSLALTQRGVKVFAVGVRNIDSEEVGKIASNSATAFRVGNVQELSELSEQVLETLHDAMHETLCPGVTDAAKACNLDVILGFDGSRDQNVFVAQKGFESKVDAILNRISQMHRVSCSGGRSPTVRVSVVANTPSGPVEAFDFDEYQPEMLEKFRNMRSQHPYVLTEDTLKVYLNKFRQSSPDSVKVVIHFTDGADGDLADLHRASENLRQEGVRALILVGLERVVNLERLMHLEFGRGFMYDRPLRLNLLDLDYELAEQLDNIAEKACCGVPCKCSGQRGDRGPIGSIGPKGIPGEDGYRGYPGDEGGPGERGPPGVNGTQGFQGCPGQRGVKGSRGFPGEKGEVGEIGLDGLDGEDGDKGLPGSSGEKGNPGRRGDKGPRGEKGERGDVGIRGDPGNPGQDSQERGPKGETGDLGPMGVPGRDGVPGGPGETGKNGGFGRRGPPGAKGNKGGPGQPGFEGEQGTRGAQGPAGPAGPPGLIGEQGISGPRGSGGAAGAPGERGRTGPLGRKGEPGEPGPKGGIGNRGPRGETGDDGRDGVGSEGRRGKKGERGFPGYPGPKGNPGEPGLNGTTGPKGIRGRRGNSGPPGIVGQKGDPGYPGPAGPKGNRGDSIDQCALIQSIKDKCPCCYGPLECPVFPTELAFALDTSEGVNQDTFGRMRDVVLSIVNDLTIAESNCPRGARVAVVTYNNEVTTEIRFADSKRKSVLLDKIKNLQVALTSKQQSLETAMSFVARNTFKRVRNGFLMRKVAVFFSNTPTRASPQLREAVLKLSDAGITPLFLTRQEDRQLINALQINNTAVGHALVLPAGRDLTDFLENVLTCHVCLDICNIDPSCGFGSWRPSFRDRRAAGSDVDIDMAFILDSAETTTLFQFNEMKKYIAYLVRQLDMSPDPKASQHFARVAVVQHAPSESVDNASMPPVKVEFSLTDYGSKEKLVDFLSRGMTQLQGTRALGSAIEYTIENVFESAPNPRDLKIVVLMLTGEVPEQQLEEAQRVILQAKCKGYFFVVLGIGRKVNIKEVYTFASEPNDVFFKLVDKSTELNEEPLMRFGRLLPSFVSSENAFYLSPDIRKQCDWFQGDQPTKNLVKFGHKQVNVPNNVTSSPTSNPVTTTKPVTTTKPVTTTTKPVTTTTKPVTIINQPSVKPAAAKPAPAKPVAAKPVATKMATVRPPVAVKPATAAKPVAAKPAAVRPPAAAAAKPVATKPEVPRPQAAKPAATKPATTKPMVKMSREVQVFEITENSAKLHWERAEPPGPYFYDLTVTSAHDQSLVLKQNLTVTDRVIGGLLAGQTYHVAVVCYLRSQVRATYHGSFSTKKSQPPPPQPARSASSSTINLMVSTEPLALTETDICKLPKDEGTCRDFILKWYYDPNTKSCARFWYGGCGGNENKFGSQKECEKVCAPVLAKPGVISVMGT

In test [1] the target is T1, collagen VI-containing suprastructures, endogenous in human articular cartilage (human (endogenous in articular cartilage)) (UniProt P12109+P12110+P12111). The experiment in a line: immunobead isolation of suprastructures with immuno-gold electron microscopy; collagen VI suprastructures isolated from human articular cartilage extracts with immunobeads coupled to collagen VI antibodies, then doubly immuno-labeled for WARP (18-nm gold) and collagen VI (small gold).

The target in test [2] is T1, collagen VI-containing suprastructures, endogenous in human articular cartilage (human (endogenous in articular cartilage)). As to the kind of experiment: co-IP; collagen VI suprastructures isolated from human articular cartilage extracts with superparamagnetic immunobeads coupled to anti-collagen VI (AF 6210); bead pellet, supernatant and crude extract immunoblotted for WARP and collagen VI under reducing conditions.

No constants are given. Whether binding was seen depends on the method and setting. For some assays here: In cells and extracts the contact can be indirect. Some results given as binding are weak or reduced against the parent protein; the word gives no strength.

B1: WARP, endogenous in human articular cartilage (protein, UniProt Q6PCB0 23-445)
chain: ERGPPASAPRGDLMFLLDSSASVSHYEFSRVREFVGQLVAPLPLGTGALRASLVHVGSRPYTEFPFGQHSSGEAAQDAVRASAQRMGDTHTGLALVYAKEQLFAEASGARPGVPKVLVWVTDGGSSDPVGPPMQELKDLGVTVFIVSTGRGNFLELSAAASAPAEKHLHFVDVDDLHIIVQELRGSILDAMRPQQLHATEITSSGFRLAWPPLLTADSGYYVLELVPSAQPGAARRQQLPGNATDWIWAGLDPDTDYDVALVPESNVRLLRPQILRVRTRPGEAGPGASGPESGAGPAPTQLAALPAPEEAGPERIVISHARPRSLRVSWAPALGSAAALGYHVQFGPLRGGEAQRVEVPAGRNCTTLQGLAPGTAYLVTVTAAFRSGRESALSAKACTPDGPRPRPRPVPRAPTPGTASREP
For B1, the binding result in test [1] and in test [2] was “binds” in each case.
